The whole screen tested about 360,000 compounds, of which about 7,500 (2.1%) were called active. Inconclusive means that the source gave no clear call. Such entries were picked first, then a sample of the others. Calls come from the whole dose curve; as a rule, active = well fitted inhibition curve with a large enough effect; inconclusive = small, poorly fitted or top-dose-only effect, or effect the other way; inactive = flat fitted curve, though single readings scatter. Potencies beside an inconclusive call are fits to weak or partial responses and may not hold up.
Assay: Nrf2 qHTS screen for inhibitors; note: nearly all actives have a fitted effect of over 60% in size
Details: A549 ARE-Fluc reporter, luciferase luminescence, 18-24 h; activity change, negative = inhibition: at 46 µM (top of the series)
Procedure, shortened: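 A549 ARE_Fluc cells (5000/well, 5% FBS OPTI-MEM) pre-incubated 2 h, then treated with compounds 18-24 h at 37C/5% CO2 in concentration-response. CellTiter-Fluor viability read first; BugLite luciferase luminescence after 15 min at room temperature gives Nrf2 activity.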
% is set by controls: 0 for no effect and ±100 for the full control effect; potency is the fitted concentration of half-maximal effect.

Compound | Potency | activity change, negative = inhibition
C=CCO/N=C(/C)c1ccc(Oc2cnccn2)cc1 | inconclusive: 11.6 µM [activator, partial curve] | 
Cc1cccc(S(=O)(=O)NCCc2cn3ccccc3n2)c1 |  | inactive: -8.66%
CCOc1ccc2c(c1)c1nnc(SCC3CCCO3)nc1n2C (stereo unspecified) | inconclusive: 3.26 µM [activator, partial curve] | 
O=S(=O)(c1ccccc1F)N1CCN(c2nc3ccccc3s2)CC1 | inconclusive: 29.1 µM [activator, single point] | 
O=S(=O)(c1ccc2ccccc2c1)N1CCN(c2nc(-c3ccccc3)nc3ccccc23)CC1 | inconclusive: 20.6 µM [activator, single point] | 
CCN(CC)S(=O)(=O)c1ccc(N2CCN(c3ccccc3O)CC2)nc1 | active: 18.4 µM | 
CCCNC(=O)CSCc1nc(-c2ccc(SC)cc2)oc1C | inconclusive: 14.6 µM [activator, partial curve] | 
Cn1cc([N+](=O)[O-])c(C(=O)N/N=C/c2cc3c(cc2Br)OCO3)n1 | inconclusive: 23.1 µM [activator, partial curve] | 
CCc1ccccc1Nc1cc(C(=O)NCc2ccc(C)cc2)c2ccccc2n1 | inconclusive: 18.4 µM [falling, single point] | 
N#Cc1cc([N+](=O)[O-])ccc1Oc1cccc(/C=N/NC(=O)c2ccc(Cl)cc2)c1 | active: 5.8 µM | 
CN(CC(=O)N1CC=C(c2ccccc2)CC1)S(=O)(=O)c1ccc2c(c1)c(=O)n(C)c(=O)n2C |  | inactive: 1.09%
O=C(COc1ccccc1Cl)N1CCc2ccccc21 | inconclusive: 11.6 µM [activator, partial curve] | 
COc1cccc(C(=O)NNc2c3ccccc3nc3ccccc23)c1 | inconclusive: 16.4 µM [falling, single point] | 
CCOc1ccc(NS(=O)(=O)c2ccc(C(=O)N(C)CCc3ccc(OC)c(OC)c3)cc2)cc1 | inconclusive: 23.1 µM [falling, single point] | 
CC(=O)c1c(C)[nH]c(C(=O)OCC(=O)N2CCN(S(=O)(=O)c3ccc(C)cc3)CC2)c1C | active: 16.4 µM | 
C=CCNC(=O)c1ccc(-c2nc(-c3ccc(Cl)c(Cl)c3)cs2)cc1 | inconclusive: 10.3 µM [falling, partial curve, poor fit] | 
C#CC[N+](C)(C)CCCCCCCCCC | inconclusive: 20.6 µM [falling, single point] | 
Cc1cccc(NC(=O)CN(c2ccc(C(C)C)cc2)S(=O)(=O)c2c(C)nn(C)c2C)c1C |  | inactive: -22.6%
CCOC(=O)C1CCN(S(=O)(=O)c2cc(-c3onc(C)c3C)ccc2C)CC1 |  | inactive: 30.8%
O=C(Nc1ccc(OCC(=O)N2CCC(Cc3ccccc3)CC2)cc1)c1ccco1 | inconclusive: 10.3 µM [falling, partial curve, poor fit] | 
Cc1ccccc1OCC(=O)Nc1ccc(C(=O)Nc2ccccc2C(=O)O)cc1 | inconclusive: 29.1 µM [falling, partial curve, poor fit] | 

Compound | Potency | activity change, negative = inhibition
O=C(Nc1nc2nc(-c3ccccc3)cc(-c3ccccc3)n2n1)c1ccco1 | inconclusive: 13 µM [falling, partial curve, poor fit] | 
O=C(NCCc1ccc(F)cc1)c1ccc2c(=O)n3c(nc2c1)CCC3 | inconclusive: 0.461 µM [activator, full curve, poor fit] | 
O=S(=O)(c1ccc(Br)s1)N1CCN(c2ccnc3cc(Cl)ccc23)CC1 | active: 20.6 µM | 
O=C(O)CCC(=O)N1N=C(c2ccc(Br)cc2)CC1c1cccs1 (stereo unspecified) | inconclusive: 0.92 µM [falling, full curve, poor fit] | 
NS(=O)(=O)c1ccc(S(=O)(=O)N2CCN(c3nc(-c4cccs4)nc4ccccc34)CC2)cc1 | inconclusive: 20.6 µM [falling, partial curve, poor fit] | 
Cc1cc(C)n(C(C)CC(=O)NCc2ccccc2C)n1 (stereo unspecified) | inconclusive: 14.6 µM [activator, partial curve, poor fit] | 
O=C(NCc1cccs1)c1ccc(CS(=O)(=O)c2ccc(Cl)cc2)o1 | inconclusive: 20.6 µM [falling, partial curve, poor fit] | 
COc1ccc(Br)cc1C(=O)Nc1ccc2oc(-c3cccnc3)nc2c1 | inconclusive: 2.59 µM [falling, full curve, poor fit] | 
O=C1CSC2=NCN(c3ccc4c(c3)OCO4)CN12 | inconclusive: 14.6 µM [activator, partial curve, poor fit] | 
COc1cc(OC)c(OC)cc1CNC(=O)c1ccc(S(=O)(=O)N2CCCCC2)cc1 | inconclusive: 29.1 µM [falling, single point] | 
O=C(CN1C(=O)S/C(=C\c2ccc(Cl)cc2)C1=O)NC1C=CS(=O)(=O)C1 (stereo unspecified) | inconclusive: 18.4 µM [activator, partial curve] | 
COc1cccc(OCC(=O)NC2CCCCC2)c1 | inconclusive: 13 µM [activator, single point] | 
Cc1ccc(S(=O)(=O)c2cn(Cc3cccc(F)c3)c3cc(N4CCCC4)c(F)cc3c2=O)cc1 |  | inactive: 27.4%
COc1ccc(CNC(=S)NCc2ccc(Cl)cc2)cc1OC | inconclusive: 25.9 µM [falling, single point] | 
CCCOc1ccccc1-c1nc(SCC(=O)c2ccccc2)n[nH]1 | inconclusive: 32.6 µM [falling, single point] | 
CCN(CC)c1nn2c(=O)c(C(=O)NCCc3ccc(C)cc3)cnc2s1 |  | inactive: -18%
COc1ccc(CNC(=O)C(c2ccc(C)o2)N(Cc2cccs2)C(=O)Cc2cccs2)cc1 (stereo unspecified) | inconclusive: 25.9 µM [falling, single point] | 
COc1ccc(CCc2nnc(CCC(=O)NCc3cc(C(C)C)no3)o2)cc1 | inconclusive: 29.1 µM [activator, single point] | 
O=C1CCCc2c1cc(-c1ccccc1)n2-c1ccc(O)cc1 |  | inactive: -27.3%
CCOc1ccc(CNC(=O)c2ccc(Sc3ccc(Cl)cc3)c(NC(C)=O)c2)cc1 | inconclusive: 29.1 µM [falling, single point] | 

Quoted from the listing.
Entry of O=C(O)CCC(=O)N1N=C(c2ccc(Br)cc2)CC1c1cccs1 (stereo unspecified) under Potency: inconclusive: 0.92 µM [falling, full curve, poor fit]
Entry of O=C(CN1C(=O)S/C(=C\c2ccc(Cl)cc2)C1=O)NC1C=CS(=O)(=O)C1 (stereo unspecified) under Potency: inconclusive: 18.4 µM [activator, partial curve]

From PubChem BioAssay AID504444 (National Center for Advancing Translational Sciences (NCATS), 2011)
